Results taken from article PMC4187731, “WWP2-WWP1 Ubiquitin Ligase Complex Coordinated by PPM1G Maintains the Balance between Cellular p73 and ΔNp73 Levels” (Molecular and Cellular Biology, 2014).

Chains of the proteins cited; added tags and fusions are not shown.
UniProt O00308: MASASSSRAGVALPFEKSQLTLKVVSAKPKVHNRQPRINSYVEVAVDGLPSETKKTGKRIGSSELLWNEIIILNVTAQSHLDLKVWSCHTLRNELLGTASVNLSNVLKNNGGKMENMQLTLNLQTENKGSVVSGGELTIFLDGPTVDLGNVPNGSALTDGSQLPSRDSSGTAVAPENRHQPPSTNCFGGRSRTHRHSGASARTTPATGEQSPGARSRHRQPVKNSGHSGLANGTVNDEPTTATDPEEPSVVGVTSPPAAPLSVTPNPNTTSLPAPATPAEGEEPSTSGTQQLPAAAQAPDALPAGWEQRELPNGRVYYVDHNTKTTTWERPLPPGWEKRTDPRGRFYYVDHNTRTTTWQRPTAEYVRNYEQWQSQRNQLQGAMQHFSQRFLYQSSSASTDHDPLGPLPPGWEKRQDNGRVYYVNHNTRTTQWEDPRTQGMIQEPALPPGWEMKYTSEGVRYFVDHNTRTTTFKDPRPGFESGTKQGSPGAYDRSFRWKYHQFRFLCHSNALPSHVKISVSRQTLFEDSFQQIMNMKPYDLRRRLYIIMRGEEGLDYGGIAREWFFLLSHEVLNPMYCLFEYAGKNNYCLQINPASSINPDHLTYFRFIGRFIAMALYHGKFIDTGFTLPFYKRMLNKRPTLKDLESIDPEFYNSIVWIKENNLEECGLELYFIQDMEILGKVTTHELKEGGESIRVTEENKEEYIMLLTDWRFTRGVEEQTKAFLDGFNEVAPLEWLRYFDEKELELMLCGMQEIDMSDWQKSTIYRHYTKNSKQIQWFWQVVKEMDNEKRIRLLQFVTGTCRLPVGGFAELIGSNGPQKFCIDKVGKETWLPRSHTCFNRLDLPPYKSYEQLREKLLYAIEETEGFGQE

Molecular target: SFB-WWP2 (WWP2 triple tagged with S-protein/Flag/SBP) (UniProt O00308)
Experiment: affinity purification with mass spectrometry; tandem affinity purification of SFB-WWP2 from stable 293T cells: NETN lysate on streptavidin-Sepharose, biotin elution, S-protein-agarose, SDS-PAGE, mass spectrometry

Row | binding | Binder
1 | binds | GST-p73 (natural protein, UniProt O15350 1-636, looked up, also called glutathione S-transferase (GST)–p73) MAQSTATSPDGGTTFEHLWSSLEPDSTYFDLPQSSRGNNEVVGGTDSSMDVFHLEGMTTSVMAQFNLLSSTMDQMSSRAASASPYTPEHAASVPTHSPYAQPSSTFDTMSPAPVIPSNTDYPGPHHFEVTFQQSSTAKSATWTYSPLLKKLYCQIAKTCPIQIKVSTPPPPGTAIRAMPVYKKAEHVTDVVKRCPNHELGRDFNEGQSAPASHLIRVEGNNLSQYVDDPVTGRQSVVVPYEPPQVGTEFTTILYNFMCNSSCVGGMNRRPILIIITLEMRDGQVLGRRSFEGRICACPGRDRKADEDHYREQQALNESSAKNGAASKRAFKQSPPAVPALGAGVKKRRHGDEDTYYLQVRGRENFEILMKLKESLELMELVPQPLVDSYRQQQQLLQRPSHLQPPSYGPVLSPMNKVHGGMNKLPSVNQLVGQPPPHSSAATPNLGPVGPGMLNNHGHAVPANGEMSSSHSAQSMVSGSHCTPPPPYHADPSLVSFLTGLGCPNCIEYFTSQGLQSIYHLQNLTIEDLGALKIPEQYRMTIWRGLQDLKQGHDYSTAQQLLRSSNAATISIGGSGELQRQRVMEAVHFRVRHTITIPNRGGPGGGPDEWADFGFDLPDCKARKQPIKEEFTEAEIH
2 | binds | PPM1G (endogenous) (enzyme, UniProt O15355 1-546) MGAYLSQPNTVKCSGDGVGAPRLPLPYGFSAMQGWRVSMEDAHNCIPELDSETAMFSVYDGHGGEEVALYCAKYLPDIIKDQKAYKEGKLQKALEDAFLAIDAKLTTEEVIKELAQIAGRPTEDEDEKEKVADEDDVDNEEAALLHEEATMTIEELLTRYGQNCHKGPPHSKSGGGTGEEPGSQGLNGEAGPEDSTRETPSQENGPTAKAYTGFSSNSERGTEAGQVGEPGIPTGEAGPSCSSASDKLPRVAKSKFFEDSEDESDEAEEEEEDSEECSEEEDGYSSEEAENEEDEDDTEEAEEDDEEEEEEMMVPGMEGKEEPGSDSGTTAVVALIRGKQLIVANAGDSRCVVSEAGKALDMSYDHKPEDEVELARIKNAGGKVTMDGRVNGGLNLSRAIGDHFYKRNKNLPPEEQMISALPDIKVLTLTDDHEFMVIACDGIWNVMSSQEVVDFIQSKISQRDENGELRLLSSIVEELLDQCLAPDTSGDGTGCDNMTCIIICFKPRNTAELQPESGKRKLEEVLSTEGAEENGNSDKKKKAKRD

Results are given in words; binding and its absence hold for the method and conditions named. In cells and extracts the contact can be indirect. A yes stands for co-enrichment or nearness to the bait. Other partners may have been found.
